According to the supplement of paper PMC10849652:
Some of the results follow.

Sequences of proteins named here, by UniProt entry; tags and fusion partners are left off. A change or cut given only in a name is not applied to a line headed by its entry.
UniProt P20226, whole entry, looked up: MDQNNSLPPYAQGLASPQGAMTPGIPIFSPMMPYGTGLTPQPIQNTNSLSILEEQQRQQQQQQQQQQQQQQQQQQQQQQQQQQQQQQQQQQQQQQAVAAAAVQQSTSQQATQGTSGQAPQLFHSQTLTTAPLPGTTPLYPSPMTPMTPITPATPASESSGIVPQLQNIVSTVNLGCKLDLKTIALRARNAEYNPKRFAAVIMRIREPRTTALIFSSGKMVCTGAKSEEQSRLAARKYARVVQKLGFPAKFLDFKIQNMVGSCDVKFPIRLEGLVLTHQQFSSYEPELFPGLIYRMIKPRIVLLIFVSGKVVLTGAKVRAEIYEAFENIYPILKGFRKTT
UniProt Q9H5L6: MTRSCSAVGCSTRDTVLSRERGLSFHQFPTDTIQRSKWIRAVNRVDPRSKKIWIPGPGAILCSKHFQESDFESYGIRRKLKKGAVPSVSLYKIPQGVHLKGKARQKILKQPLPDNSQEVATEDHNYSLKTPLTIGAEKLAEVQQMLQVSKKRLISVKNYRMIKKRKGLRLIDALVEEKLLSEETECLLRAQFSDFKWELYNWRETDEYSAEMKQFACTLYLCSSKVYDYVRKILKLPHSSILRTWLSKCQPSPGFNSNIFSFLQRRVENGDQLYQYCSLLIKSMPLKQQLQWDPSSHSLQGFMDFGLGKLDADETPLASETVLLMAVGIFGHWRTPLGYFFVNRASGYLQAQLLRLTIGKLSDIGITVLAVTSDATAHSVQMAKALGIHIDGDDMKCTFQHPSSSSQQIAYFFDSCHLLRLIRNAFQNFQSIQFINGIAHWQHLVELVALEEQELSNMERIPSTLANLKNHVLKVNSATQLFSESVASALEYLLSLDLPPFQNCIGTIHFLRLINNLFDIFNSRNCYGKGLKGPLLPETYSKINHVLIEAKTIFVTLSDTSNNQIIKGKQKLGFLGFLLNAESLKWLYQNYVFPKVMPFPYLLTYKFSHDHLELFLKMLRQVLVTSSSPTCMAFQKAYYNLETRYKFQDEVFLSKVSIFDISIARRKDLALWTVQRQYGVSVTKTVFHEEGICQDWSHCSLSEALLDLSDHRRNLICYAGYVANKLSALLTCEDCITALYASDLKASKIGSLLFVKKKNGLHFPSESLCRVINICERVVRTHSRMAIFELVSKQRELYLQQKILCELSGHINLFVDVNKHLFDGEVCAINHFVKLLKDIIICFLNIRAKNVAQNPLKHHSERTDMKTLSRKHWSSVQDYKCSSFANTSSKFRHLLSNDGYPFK
UniProt Q8TEA7: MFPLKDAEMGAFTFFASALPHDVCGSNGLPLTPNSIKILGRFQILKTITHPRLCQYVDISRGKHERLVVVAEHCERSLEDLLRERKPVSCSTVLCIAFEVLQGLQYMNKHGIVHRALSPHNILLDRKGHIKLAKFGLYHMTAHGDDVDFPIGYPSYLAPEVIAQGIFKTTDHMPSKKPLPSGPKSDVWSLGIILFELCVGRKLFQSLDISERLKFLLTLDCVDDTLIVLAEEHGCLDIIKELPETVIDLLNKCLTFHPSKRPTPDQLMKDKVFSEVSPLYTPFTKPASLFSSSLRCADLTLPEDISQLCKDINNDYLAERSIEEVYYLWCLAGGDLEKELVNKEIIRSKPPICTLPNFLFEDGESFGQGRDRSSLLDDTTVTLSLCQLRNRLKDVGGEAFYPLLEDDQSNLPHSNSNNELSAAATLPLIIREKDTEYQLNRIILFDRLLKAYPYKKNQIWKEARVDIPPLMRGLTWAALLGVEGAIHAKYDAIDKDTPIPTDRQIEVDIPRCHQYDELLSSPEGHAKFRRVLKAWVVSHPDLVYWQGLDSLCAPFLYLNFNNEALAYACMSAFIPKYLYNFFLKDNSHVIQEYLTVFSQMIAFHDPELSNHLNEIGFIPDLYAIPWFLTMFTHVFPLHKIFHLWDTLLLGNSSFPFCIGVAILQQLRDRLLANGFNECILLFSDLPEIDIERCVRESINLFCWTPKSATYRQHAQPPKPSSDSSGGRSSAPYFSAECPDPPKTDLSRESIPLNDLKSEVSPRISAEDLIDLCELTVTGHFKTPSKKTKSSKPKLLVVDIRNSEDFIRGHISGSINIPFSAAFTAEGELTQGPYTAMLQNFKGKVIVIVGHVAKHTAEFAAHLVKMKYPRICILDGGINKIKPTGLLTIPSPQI
UniProt Q7L2K0: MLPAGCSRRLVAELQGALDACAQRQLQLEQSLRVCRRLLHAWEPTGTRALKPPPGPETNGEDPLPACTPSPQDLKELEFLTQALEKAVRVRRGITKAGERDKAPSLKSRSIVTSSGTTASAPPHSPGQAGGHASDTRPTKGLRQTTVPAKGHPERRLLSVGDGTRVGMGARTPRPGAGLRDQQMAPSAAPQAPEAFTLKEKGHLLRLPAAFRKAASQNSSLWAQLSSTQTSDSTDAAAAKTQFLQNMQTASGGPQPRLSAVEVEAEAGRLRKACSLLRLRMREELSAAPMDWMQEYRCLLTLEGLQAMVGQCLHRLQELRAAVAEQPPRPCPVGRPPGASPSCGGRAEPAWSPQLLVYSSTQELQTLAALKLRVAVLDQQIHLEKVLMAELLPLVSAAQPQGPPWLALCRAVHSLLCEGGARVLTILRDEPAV
UniProt Q9NUJ3: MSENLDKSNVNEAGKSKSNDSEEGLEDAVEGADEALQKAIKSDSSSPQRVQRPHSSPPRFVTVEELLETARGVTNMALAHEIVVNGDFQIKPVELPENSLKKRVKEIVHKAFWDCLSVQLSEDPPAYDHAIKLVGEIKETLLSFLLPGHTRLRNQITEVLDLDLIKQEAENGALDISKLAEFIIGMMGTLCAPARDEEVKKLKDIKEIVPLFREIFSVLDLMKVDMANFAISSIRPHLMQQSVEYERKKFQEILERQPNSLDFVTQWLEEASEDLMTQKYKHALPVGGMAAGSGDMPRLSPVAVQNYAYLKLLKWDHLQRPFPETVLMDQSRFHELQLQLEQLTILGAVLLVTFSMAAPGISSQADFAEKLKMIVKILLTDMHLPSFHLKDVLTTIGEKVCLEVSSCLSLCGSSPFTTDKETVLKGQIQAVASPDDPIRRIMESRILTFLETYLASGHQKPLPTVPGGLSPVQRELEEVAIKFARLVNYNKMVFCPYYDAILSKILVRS
UniProt Q5JUR7: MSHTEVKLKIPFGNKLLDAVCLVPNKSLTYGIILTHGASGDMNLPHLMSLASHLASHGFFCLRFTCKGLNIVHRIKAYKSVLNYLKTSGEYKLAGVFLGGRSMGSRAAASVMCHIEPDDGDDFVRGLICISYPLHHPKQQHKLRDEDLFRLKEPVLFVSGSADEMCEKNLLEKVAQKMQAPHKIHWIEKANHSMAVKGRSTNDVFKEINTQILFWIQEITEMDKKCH
UniProt Q96EI5: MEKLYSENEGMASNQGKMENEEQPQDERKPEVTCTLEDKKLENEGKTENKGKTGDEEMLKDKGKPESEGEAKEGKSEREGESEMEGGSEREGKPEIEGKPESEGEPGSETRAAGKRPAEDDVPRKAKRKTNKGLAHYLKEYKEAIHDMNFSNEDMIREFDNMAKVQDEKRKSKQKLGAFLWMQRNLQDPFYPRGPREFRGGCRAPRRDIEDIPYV
UniProt Q6ZT07: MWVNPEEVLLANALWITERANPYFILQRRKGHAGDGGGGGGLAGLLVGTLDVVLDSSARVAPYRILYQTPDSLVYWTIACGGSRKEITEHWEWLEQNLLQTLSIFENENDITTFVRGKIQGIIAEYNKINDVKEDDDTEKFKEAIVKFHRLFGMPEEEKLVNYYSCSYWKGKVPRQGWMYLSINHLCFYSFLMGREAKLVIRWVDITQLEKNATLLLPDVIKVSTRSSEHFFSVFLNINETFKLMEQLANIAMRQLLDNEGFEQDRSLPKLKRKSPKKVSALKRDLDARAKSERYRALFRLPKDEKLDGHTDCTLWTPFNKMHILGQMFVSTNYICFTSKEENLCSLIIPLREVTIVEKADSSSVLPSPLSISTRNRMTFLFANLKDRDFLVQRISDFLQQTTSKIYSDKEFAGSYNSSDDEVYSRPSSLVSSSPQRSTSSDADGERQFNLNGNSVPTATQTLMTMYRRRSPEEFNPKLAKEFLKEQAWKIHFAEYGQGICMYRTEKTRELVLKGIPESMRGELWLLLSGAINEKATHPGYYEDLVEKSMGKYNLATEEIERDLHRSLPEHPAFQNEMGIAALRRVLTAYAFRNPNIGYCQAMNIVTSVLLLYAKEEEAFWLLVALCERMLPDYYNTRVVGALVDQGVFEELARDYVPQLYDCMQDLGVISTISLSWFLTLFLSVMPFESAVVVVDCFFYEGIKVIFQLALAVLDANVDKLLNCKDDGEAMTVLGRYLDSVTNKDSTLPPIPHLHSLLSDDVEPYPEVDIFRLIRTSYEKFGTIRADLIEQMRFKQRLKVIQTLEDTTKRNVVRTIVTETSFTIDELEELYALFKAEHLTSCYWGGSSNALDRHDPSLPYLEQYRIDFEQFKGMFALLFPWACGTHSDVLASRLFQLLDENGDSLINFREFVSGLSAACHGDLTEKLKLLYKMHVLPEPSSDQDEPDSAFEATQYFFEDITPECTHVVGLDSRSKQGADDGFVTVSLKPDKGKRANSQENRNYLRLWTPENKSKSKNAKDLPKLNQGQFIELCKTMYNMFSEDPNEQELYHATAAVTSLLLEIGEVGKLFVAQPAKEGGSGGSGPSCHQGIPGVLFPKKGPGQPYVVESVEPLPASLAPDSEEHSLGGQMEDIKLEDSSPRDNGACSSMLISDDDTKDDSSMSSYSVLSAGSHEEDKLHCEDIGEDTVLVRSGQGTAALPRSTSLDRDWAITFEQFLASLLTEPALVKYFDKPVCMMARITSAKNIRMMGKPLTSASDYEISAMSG
UniProt Q8N9U0: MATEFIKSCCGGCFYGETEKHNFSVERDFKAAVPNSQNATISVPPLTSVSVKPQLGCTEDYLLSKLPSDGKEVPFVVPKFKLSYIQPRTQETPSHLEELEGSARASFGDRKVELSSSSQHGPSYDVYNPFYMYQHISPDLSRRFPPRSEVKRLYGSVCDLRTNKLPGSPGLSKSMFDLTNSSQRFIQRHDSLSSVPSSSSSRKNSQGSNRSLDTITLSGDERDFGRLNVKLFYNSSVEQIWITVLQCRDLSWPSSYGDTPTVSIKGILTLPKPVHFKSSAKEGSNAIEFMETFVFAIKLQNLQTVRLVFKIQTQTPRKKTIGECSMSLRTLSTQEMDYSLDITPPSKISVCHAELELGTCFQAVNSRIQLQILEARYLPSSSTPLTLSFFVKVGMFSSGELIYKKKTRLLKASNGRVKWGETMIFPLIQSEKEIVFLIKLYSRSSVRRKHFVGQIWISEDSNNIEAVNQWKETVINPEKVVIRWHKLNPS
UniProt Q5TEJ8: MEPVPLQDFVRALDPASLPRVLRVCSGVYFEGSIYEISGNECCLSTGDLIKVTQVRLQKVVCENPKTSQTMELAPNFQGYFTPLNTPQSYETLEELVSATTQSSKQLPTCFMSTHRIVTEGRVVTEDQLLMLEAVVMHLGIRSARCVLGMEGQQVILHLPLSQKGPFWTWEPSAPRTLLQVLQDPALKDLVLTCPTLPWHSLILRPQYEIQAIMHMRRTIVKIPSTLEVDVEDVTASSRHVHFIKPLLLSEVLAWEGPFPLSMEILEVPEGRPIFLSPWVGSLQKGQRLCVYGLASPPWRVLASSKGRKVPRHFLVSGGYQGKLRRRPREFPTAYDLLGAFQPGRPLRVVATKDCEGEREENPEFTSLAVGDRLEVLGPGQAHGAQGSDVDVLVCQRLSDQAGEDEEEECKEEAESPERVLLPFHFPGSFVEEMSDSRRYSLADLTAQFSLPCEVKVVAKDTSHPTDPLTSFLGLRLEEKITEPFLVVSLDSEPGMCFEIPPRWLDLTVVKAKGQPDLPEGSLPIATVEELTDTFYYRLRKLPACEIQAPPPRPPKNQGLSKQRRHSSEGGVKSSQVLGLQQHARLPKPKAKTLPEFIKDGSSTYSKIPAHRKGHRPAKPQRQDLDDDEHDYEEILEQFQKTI

Compound: CNc1nc(-c2ccc3c(N)n[nH]c3c2)cc(N2C[C@@H](C(=O)NC3CCCCC3)CC[C@H]2C)n1
Experiment: log2 fold change, soluble protein after heating vs DMSO (PISA); higher = thermal stabilisation; K562 cells, 10 uM, 30 min; active = over 0.2 and 3.5 SD of the protein, either way, in both replicates (recomputed)
Procedure, shortened: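 K562 cells (2×10^6 cells/mL) were treated with 10 μM compound for 30 min, and aliquots were heated for 3 min over 48°C-58°C. Pooled aliquots were extracted in PBS with 0.5% NP-40 at 4°C, and the supernatant after 21,000xg for 90 min was measured by TMTpro 16plex LC-MS/MS with channel sums equalised. Reported thermal stability, relative to control samples and from duplicates, is a log2 fold change.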

log2 fold change, inactive:
TBP (UniProt P20226) -0.158
THAP9 (UniProt Q9H5L6) 0.186
TBCK (UniProt Q8TEA7) -0.195
TEDC2 (UniProt Q7L2K0) 0.053
TCP11L1 (UniProt Q9NUJ3) 0.046
TEX30 (UniProt Q5JUR7) -0.026
TENM4 (UniProt Q6N022) 0.11
TCEAL4 isoform 2 (UniProt Q96EI5) 0.198
TBC1D9 (UniProt Q6ZT07) -0.011
TC2N (UniProt Q8N9U0) -0.064
THEMIS2 (UniProt Q5TEJ8) -0.141
TDRD7 (UniProt Q8NHU6) -0.037

Two consecutive entries already listed, quoted:
log2 fold change, inactive:
TEX30 (UniProt Q5JUR7) -0.026
TENM4 (UniProt Q6N022) 0.11
